Test results: PMC7188304
These are yes or no findings as the source states them, for the method shown. In cells and extracts the contact can be indirect. Some results given as binding are weak or reduced against the parent protein; the word gives no strength. For part of these data: Sequences can lack the tags named with a protein.

The chains behind the UniProt entries cited, without tags or fusion partners.
UniProt Q9HB90: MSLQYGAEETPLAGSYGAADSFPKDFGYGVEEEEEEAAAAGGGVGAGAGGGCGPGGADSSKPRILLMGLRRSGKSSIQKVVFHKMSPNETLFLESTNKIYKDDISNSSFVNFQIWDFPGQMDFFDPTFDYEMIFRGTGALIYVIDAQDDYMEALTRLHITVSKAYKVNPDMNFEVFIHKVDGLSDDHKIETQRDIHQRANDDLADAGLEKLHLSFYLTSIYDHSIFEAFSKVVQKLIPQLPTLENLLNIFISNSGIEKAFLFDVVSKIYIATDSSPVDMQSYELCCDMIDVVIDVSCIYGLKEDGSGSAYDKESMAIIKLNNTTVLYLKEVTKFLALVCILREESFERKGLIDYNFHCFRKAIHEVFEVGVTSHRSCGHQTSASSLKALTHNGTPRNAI
UniProt Q8N122: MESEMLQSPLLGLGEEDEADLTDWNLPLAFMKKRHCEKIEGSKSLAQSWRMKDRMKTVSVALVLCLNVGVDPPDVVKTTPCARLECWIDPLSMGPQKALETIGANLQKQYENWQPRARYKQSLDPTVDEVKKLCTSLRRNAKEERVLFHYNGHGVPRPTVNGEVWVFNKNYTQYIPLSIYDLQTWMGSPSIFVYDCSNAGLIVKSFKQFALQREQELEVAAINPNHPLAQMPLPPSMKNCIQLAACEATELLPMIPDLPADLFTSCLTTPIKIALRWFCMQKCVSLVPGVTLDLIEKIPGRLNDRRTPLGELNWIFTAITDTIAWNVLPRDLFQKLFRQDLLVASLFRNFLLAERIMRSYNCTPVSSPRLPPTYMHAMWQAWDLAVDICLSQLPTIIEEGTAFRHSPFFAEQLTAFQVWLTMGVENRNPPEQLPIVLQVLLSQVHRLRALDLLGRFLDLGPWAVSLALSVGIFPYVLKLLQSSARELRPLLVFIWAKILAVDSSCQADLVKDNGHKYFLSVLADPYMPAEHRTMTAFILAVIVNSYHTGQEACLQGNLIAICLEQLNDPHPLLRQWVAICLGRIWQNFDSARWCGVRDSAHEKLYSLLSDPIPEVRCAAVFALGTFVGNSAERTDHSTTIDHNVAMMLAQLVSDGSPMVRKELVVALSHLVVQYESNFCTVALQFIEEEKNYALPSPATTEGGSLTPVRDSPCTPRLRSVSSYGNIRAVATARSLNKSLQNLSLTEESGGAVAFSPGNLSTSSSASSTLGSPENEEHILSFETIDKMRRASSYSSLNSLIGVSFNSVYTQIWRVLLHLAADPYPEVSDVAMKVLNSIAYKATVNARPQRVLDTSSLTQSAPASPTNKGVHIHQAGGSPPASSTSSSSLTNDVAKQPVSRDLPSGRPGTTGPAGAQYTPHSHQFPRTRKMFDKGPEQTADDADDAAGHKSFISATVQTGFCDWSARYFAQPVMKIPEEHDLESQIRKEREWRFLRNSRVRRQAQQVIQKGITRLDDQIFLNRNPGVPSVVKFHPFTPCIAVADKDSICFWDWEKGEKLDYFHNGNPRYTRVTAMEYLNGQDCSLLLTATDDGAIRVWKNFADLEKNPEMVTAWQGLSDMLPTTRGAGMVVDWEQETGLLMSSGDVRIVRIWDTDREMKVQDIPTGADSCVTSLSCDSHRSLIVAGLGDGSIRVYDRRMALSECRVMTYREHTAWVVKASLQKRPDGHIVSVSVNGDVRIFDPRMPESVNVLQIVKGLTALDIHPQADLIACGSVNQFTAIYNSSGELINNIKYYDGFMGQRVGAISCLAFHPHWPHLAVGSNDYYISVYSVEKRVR
UniProt Q7L523: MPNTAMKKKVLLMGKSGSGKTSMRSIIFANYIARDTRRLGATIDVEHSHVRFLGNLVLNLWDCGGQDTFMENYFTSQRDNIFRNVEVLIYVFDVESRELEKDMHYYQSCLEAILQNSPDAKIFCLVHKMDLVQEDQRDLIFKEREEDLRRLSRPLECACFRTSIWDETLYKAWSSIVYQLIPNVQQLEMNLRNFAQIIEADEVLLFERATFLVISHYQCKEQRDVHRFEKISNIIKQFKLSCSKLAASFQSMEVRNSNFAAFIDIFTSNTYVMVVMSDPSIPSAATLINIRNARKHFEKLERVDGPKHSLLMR

Key:
[1] = target: T1, endogenous C9orf72 (human (endogenous in HEK293)) (UniProt Q96LT7); test: co-IP; endogenous proteins of HEK293 cells; C9orf72 immunoprecipitates in NP-40 lysis buffer, protein A/G magnetic beads; western blotting with the quick western kit
T1 sequence: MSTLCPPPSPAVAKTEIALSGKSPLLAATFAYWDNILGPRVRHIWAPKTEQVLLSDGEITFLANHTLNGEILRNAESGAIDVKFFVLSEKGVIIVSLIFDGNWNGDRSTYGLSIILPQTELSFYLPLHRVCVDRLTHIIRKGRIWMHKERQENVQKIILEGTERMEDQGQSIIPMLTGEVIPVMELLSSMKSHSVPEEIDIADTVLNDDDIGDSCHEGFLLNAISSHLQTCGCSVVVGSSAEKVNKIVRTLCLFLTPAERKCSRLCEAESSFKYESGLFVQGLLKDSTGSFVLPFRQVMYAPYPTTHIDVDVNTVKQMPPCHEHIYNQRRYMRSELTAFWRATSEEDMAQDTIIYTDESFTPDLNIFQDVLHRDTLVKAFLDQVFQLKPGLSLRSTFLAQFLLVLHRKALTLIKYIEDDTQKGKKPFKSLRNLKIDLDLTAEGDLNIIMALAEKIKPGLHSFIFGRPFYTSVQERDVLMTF

C9orf72-Flag (human) = target: T2, C9orf72-Flag (human) (UniProt Q96LT7); test: co-IP; HEK293 cells co-transfected, lysates 48 hr post-transfection in NP-40 lysis buffer (20 mM Tris-HCl, 150 mM NaCl, 1% NP-40, 2 mM EDTA); IgG, anti-FLAG or anti-HA antibody overnight at 4°C, protein A/G magnetic beads; immunoblot
T2 sequence: T1 sequence

## endogenous RagC (from UniProt Q9HB90 1-399)
[1]
  binding: binds

## myc-Raptor (from UniProt Q8N122 1-1335)
C9orf72-Flag (human)
  binding: binds

## endogenous RagA (from UniProt Q7L523 1-313)
[1]
  binding: binds
